Here are results for 1 molecule from article doi:10.1101/2025.07.22.665954.

By UniProt entry, the sequences of proteins in these tests, tags left out.
UniProt P34077: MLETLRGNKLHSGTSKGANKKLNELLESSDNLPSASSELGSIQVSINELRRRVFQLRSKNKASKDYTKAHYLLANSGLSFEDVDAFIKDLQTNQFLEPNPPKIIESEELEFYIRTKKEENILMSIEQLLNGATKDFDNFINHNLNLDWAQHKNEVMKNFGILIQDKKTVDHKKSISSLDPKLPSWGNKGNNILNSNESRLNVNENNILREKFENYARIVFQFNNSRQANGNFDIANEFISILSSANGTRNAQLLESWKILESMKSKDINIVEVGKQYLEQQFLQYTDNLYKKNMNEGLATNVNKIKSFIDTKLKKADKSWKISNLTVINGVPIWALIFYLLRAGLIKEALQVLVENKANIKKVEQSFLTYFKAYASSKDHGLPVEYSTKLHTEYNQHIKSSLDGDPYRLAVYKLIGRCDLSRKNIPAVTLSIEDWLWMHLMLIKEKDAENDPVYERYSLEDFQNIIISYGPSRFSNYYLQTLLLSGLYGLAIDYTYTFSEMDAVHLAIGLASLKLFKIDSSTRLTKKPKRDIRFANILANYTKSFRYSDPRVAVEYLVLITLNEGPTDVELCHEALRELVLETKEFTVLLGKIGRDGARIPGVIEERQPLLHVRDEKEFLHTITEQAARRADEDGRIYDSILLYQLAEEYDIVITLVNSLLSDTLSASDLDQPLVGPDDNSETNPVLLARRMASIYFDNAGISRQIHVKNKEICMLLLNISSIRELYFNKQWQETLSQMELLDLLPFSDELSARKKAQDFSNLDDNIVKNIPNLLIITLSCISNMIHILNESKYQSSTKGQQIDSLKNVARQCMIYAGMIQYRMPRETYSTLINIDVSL

Results are given in words; binding and its absence hold for the method and conditions named. Binding seen in cells or lysates may run through a third protein. Some binding calls cover weakened binding; strength is not graded here. Sequences can lack the tags named with a protein.

The test concerns the target Nic96-GFP (S. cerevisiae) (UniProt P34077). Description: co-IP.

B1: Brl1-HA (protein, UniProt P38770 1-471)
chain: MESFENLSIRDSFTSGMEHVDEELGGLSDLSISKQGPTLSPQLINRFMPHFPSSPSPLRNTLDFSAAKADEEEDDRMEIDEVDDTSFEEEYNNEPIETHTEATENAVVEEIEATPEERQKQEKNESQDQSVEEVENIVSPHRSTVIKALLSPTDLGVAAATKVEGVVPLPPSANQDDNESSNNNAEGEDIIRNEEVEDEIKSSLGNHKSSQYANAFDSEIIKRELRSRSKYQPIQVSFNTHNYFYSDKDGIKTYSLTKPNHNKIDEFYDQNEAFKLPKPWSPNSHPASRASYALMSYLQLFLNAITTVVIFSFILSFIIALQKDLKSTWEQRKHELQYESRICQEQYLTNRCNQTPGLPALGEQCAIWKQCMDRNNDIFFRARSTLSAKLFGDIINSFIDPLNWKTLFVIFCGVITWCFSSNFLLGFVRAKSYYGNGIKTYPLPSSPKSPTSEETHSSMTASGEDSHLLKQ
As to B1, the binding entry is recorded as “binds”.
